No constants are given. Whether binding was seen depends on the method and setting. In cells and extracts the contact can be indirect. Some entries that bind do so weakly or less than the wild type. For part of these data: Where a sequence is shown, tags or fusion partners need not be part of it.
B1: HA-tagged human NHE5 (protein, UniProt Q14940 1-896)
chain: MLRAALSLLALPLAGAAEEPTQKPESPGEPPPGLELFRWQWHEVEAPYLVALWILVASLAKIVFHLSRKVTSLVPESCLLILLGLVLGGIVLAVAKKAEYQLEPGTFFLFLLPPIVLDSGYFMPSRLFFDNLGAILTYAVVGTLWNAFTTGAALWGLQQAGLVAPRVQAGLLDFLLFGSLISAVDPVAVLAVFEEVHVNETLFIIVFGESLLNDAVTVVLYKVCNSFVEMGSANVQATDYLKGVASLFVVSLGGAAVGLVFAFLLALTTRFTKRVRIIEPLLVFLLAYAAYLTAEMASLSAILAVTMCGLGCKKYVEANISHKSRTTVKYTMKTLASCAETVIFMLLGISAVDSSKWAWDSGLVLGTLIFILFFRALGVVLQTWVLNQFRLVPLDKIDQVVMSYGGLRGAVAFALVILLDRTKVPAKDYFVATTIVVVFFTVIVQGLTIKPLVKWLKVKRSEHHKPTLNQELHEHTFDHILAAVEDVVGHHGYHYWRDRWEQFDKKYLSQLLMRRSAYRIRDQIWDVYYRLNIRDAISFVDQGGHVLSSTGLTLPSMPSRNSVAETSVTNLLRESGSGACLDLQVIDTVRSGRDREDAVMHHLLCGGLYKPRRRYKASCSRHFISEDAQERQDKEVFQQNMKRRLESFKSTKHNICFTKSKPRPRKTGRRKKDGVANAEATNGKHRGLGFQDTAAVILTVESEEEEEESDSSETEKEDDEGIIFVARATSEVLQEGKVSGSLEVCPSPRIIPPSPTCAEKELPWKSGQGDLAVYVSSETTKIVPVDMQTGWNQSISSLESLASPPCNQAPILTCLPPHPRGTEEPQVPLHLPSDPRSSFAFPPSLAKAGRSRSESSADLPQQQELQPLMGHKDHTHLSPGTATSHWCIQFNRGSRL
B2: endogenous GGA1 of SH-SY5Y neuroblastoma cells (protein, UniProt Q9UJY5 1-639)
chain: MEPAMEPETLEARINRATNPLNKELDWASINGFCEQLNEDFEGPPLATRLLAHKIQSPQEWEAIQALTVLETCMKSCGKRFHDEVGKFRFLNELIKVVSPKYLGSRTSEKVKNKILELLYSWTVGLPEEVKIAEAYQMLKKQGIVKSDPKLPDDTTFPLPPPRPKNVIFEDEEKSKMLARLLKSSHPEDLRAANKLIKEMVQEDQKRMEKISKRVNAIEEVNNNVKLLTEMVMSHSQGGAAAGSSEDLMKELYQRCERMRPTLFRLASDTEDNDEALAEILQANDNLTQVINLYKQLVRGEEVNGDATAGSIPGSTSALLDLSGLDLPPAGTTYPAMPTRPGEQASPEQPSASVSLLDDELMSLGLSDPTPPSGPSLDGTGWNSFQSSDATEPPAPALAQAPSMESRPPAQTSLPASSGLDDLDLLGKTLLQQSLPPESQQVRWEKQQPTPRLTLRDLQNKSSSCSSPSSSATSLLHTVSPEPPRPPQQPVPTELSLASITVPLESIKPSNILPVTVYDQHGFRILFHFARDPLPGRSDVLVVVVSMLSTAPQPIRNIVFQSAVPKVMKVKLQPPSGTELPAFNPIVHPSAITQVLLLANPQKEKVRLRYKLTFTMGDQTYNEMGDVDQFPPPETWGSL
B3: endogenous GGA1 of mouse brain (protein, UniProt Q8R0H9 1-635)
chain: MEPAMEPETLEARINRATNPLNKELNWASINSFCEQLNEDFEGPPLATRLLAHKIQSPQEWEAIQALTVLETCMKSCGKRFHDEVGKFRFLNELIKVVSPKYLGSRTSEKVKSKILELLYSWTVCLPEEVKIAEAYQMLKKQGIVKSDPKLPEDAIFPLPPPRPKNVIFEDEEKSKMLARLLKSSHPEDLRAANKLIKEMVQEDQKRMEKISKRVNAIEEVNNNVKLLTEMVMSHSQGAASSSSEDLMKELYQRCERMRPTLFRLASDTEDNDEALAEILQANDNLTQVINLYKQLVRGEEVNGDATASSIPGSTSALLDLSGLDLPPPGTTQPATPTRPGNQSSPEQLSASVSLLDDELMSLGLSDPTPPSGTSSDSVGWDNFQSSDGTESSVPPPAQAPSMDCRPPAQAPPPTSSGLDDLDLLGKTLMQQALPPEAQQVRWEKQQPAPRLTLRDLQSKSSSPSPGAASLLHTTSPEPPGPPPQATPTEFSLTSITVPLESIKPSSILPVTVYDQHGFRVLFHFARDPLPGRSDVLVVVVSMLSTAPQPIRNIVFQSAVPKVMKVRLQPPSGTELPAFNPIVHPSAITQVLLLANPQKEKVRLRYKLIFTMGDQTYNEMGDVDQFPPPETWGSL
B4: HA-tagged human NHE7 (protein, UniProt Q96T83 1-725)
chain: MEPGDAARPGSGRATGAPPPRLLLLPLLLGWGLRVAAAASASSSGAAAEDSSAMEELATEKEAEESHRQDSVSLLTFILLLTLTILTIWLFKHRRVRFLHETGLAMIYGLIVGVILRYGTPATSGRDKSLSCTQEDRAFSTLLVNVSGKFFEYTLKGEISPGKINSVEQNDMLRKVTFDPEVFFNILLPPIIFHAGYSLKKRHFFRNLGSILAYAFLGTAVSCFIIGNLMYGVVKLMKIMGQLSDKFYYTDCLFFGAIISATDPVTVLAIFNELHADVDLYALLFGESVLNDAVAIVLSSSIVAYQPAGLNTHAFDAAAFFKSVGIFLGIFSGSFTMGAVTGVNANVTKFTKLHCFPLLETALFFLMSWSTFLLAEACGFTGVVAVLFCGITQAHYTYNNLSVESRSRTKQLFEVLHFLAENFIFSYMGLALFTFQKHVFSPIFIIGAFVAIFLGRAAHIYPLSFFLNLGRRHKIGWNFQHMMMFSGLRGAMAFALAIRDTASYARQMMFTTTLLIVFFTVWIIGGGTTPMLSWLNIRVGVEEPSEEDQNEHHWQYFRVGVDPDQDPPPNNDSFQVLQGDGPDSARGNRTKQESAWIFRLWYSFDHNYLKPILTHSGPPLTTTLPAWCGLLARCLTSPQVYDNQEPLREEDSDFILTEGDLTLTYGDSTVTANGSSSSHTASTSLEGSRRTKSSSEEVLERDLGMGDQKVSSRGTRLVFPLEDNA
B5: HA-tagged mouse NHE9 (protein, UniProt Q8BZ00 1-644)
chain: MAGQLRFTSGKDEDHFQHQGAVELLAFNFLLILTILTIWLFKNHRFRFLHETGGAMVYGLIMGLILRYATAPTDIDSGTVYNCGNLFFSPSTLLVNITDQVYEYKYQREINQHNISPHQGNAILEKMTFDPEIFFNVLLPPIIFHAGYSLKKRHFFQNLGSILTYAFLGTAISCVVIGLIMYGFVKAMVHAGQLKSGDFHFTDCLFFGSLMSATDPVTVLAIFHELHVDPDLYTLLFGESVLNDAVAIVLTYSISIYSPKENPNAFDTAAFFQSVGNFLGIFAGSFAMGSAYAVVTALLTKFTKLREFPMLETGLFFLLSWSAFLSAEAAGLTGIVAVLFCGVTQAHYTYNNLSSDSKLRTKQLFEFMNFLAENVIFCYMGLALFTFQNHIFNALFILGAFLAIFVARACNIYPLSFLLNLGRKQKIPWNFQHMMMFSGLRGAIAFALAIRNTESQPKQMMFTTTLLLVFFTVWVFGGGTTPMLTWLQIRVGVDLDESLKEEPSSQQEANKLDKNMTKTESAQLFRMWYGFDHKYLKPILTHSGPPLTTTLPAWCGPVSRLLTSPQAYGEQLKEDDVECIVNQDELAMNYQEQSPSPSSPTTKLALDQKSSGQTPGKENIYEGDLGLGGYDLKLEQTRGQPQMD

Sequences of proteins named here, by UniProt entry; tags and fusion partners are left off. A change or cut given only in a name is not applied to a line headed by its entry.
UniProt P19634: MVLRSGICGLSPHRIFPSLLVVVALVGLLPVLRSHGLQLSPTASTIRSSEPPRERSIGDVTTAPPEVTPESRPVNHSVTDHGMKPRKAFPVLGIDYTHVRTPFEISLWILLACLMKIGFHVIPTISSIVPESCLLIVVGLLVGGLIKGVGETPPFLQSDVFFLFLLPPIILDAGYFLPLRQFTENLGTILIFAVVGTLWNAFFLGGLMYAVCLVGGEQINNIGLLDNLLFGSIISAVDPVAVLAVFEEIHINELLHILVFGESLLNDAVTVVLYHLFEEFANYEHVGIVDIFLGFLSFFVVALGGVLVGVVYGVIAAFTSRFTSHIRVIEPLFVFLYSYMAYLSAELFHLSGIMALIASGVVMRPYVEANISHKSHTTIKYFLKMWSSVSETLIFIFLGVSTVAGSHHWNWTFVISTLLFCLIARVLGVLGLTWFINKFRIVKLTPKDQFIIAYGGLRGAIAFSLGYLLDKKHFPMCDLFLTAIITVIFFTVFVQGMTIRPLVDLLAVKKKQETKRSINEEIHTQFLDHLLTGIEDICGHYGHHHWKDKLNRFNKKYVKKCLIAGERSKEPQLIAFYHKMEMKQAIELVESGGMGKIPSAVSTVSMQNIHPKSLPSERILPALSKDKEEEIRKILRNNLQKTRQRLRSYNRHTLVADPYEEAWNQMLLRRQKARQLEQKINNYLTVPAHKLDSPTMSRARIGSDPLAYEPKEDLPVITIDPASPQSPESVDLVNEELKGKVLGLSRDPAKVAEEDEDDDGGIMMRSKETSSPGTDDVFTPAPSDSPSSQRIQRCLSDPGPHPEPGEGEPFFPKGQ

Key:
[1] = target: T1, c-Myc-GGA1 (mouse GGA1 in pCMV-c-Myc) (mouse) (UniProt Q8R0H9); assay: co-IP; HEK293T cells cotransfected with c-Myc-GGA1 and an HA-tagged NHE construct; lysate precipitated with anti-c-Myc, blotted with anti-NHE6 or anti-HA
T1 sequence: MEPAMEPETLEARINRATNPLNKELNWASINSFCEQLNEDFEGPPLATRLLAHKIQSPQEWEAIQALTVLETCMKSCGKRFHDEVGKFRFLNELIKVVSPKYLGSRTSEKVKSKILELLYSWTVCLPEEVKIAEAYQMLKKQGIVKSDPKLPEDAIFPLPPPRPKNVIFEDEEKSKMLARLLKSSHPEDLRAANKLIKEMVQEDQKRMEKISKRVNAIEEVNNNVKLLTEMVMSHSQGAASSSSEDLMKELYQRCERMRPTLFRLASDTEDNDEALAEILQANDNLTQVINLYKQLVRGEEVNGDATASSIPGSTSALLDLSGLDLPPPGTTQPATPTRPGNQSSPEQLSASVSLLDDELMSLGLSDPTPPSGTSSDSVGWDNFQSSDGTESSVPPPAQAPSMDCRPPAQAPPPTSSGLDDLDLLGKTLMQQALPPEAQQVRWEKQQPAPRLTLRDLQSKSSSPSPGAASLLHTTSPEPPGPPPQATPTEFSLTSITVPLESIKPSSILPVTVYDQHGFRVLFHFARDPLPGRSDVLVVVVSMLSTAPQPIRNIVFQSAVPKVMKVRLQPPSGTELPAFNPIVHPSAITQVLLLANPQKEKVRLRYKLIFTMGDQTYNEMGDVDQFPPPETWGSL

[2] = target: T2, endogenous NHE6 of SH-SY5Y neuroblastoma cells (human (endogenous in SH-SY5Y)) (UniProt Q92581); assay: co-IP; endogenous proteins; SH-SY5Y lysate precipitated with anti-NHE6 (normal rabbit IgG as control), blotted with anti-GGA1
T2 sequence: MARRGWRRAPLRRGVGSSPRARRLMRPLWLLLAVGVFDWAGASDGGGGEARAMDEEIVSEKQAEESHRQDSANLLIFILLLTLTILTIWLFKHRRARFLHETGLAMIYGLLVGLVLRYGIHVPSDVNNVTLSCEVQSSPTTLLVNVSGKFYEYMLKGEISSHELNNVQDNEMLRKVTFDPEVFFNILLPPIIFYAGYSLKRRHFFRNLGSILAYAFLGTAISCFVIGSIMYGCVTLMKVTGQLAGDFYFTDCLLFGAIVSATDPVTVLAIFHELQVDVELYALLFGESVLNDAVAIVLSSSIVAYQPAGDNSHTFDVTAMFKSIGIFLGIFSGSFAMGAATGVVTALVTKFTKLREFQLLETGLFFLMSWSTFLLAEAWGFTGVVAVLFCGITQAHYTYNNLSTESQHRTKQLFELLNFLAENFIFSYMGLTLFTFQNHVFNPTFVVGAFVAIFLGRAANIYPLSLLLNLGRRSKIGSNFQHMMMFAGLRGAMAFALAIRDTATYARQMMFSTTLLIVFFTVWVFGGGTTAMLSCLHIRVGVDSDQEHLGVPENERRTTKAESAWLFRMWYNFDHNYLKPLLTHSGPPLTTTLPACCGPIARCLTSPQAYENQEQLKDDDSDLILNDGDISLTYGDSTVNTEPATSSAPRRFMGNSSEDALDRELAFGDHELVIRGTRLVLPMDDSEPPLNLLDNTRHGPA

[3] = target: T3, endogenous NHE6 of mouse brain (mouse (endogenous in brain tissue)) (UniProt A1L3P4); assay: co-IP; endogenous proteins; homogenised cortical brain lysate of WT and NHE6-null mice (P0) precipitated with anti-NHE6 (normal rabbit IgG as control), blotted with anti-GGA1
T3 sequence: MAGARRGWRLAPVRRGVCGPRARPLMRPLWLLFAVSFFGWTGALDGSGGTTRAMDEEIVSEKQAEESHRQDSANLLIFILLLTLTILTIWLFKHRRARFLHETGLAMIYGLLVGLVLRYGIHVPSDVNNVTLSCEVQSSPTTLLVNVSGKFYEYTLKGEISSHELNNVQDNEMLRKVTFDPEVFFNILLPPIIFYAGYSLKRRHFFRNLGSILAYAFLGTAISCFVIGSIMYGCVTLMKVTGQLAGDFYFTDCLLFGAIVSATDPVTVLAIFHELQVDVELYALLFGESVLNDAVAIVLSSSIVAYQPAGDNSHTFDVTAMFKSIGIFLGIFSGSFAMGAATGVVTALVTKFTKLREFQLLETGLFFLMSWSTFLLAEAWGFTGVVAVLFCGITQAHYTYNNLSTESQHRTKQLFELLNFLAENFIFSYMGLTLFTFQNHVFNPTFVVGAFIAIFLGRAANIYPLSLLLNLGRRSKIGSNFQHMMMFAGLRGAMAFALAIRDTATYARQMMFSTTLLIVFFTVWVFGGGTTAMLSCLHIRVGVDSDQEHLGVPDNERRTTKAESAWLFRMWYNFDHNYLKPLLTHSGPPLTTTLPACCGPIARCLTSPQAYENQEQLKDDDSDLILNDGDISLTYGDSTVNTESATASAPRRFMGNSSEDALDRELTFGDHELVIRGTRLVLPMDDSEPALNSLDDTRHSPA

| Molecule | binding [1] | further results |
| --- | --- | --- |
| mutagenesis (G720D) corrected hNHE1-HA (from UniProt P19634 1-815) | binds weakly | – |
| B1 | binds weakly | – |
| B2 | – | binding [2]: binds |
| B3 | – | binding [3]: binds |
| B4 | binds | – |
| B5 | binds | – |

Source: article PMC11375261
